Data source: PubChem BioAssay AID602196 (INSERM, 2012)
Screen: 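Modifiers of cisplatin sensitivity in A549 cells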. Cells: human A549 lung cancer cells. Knock-down reagent: siRNA pair against human genes. Time to read-out: 48 h transfection before cisplatin; time from cisplatin to read-out not stated. Treatment: cisplatin at a dose killing half of control-siRNA cells; exact dose and duration not given. Measurement: 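Cisplatin cell death as a shift from the 50% death seen with control siRNA; siRNAs toxic or growth-blocking alone scored 0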. Direction: two-siRNA summed score (-2 to +2): higher = both siRNAs protect from cisplatin killing; -2 means both sensitise. Active means: 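Each siRNA scores 0 if harmful alone by LDH or WST-1, otherwise +1 if it reduces and -1 if it increases cisplatin killing; a gene is active when both siRNAs agree (sum +2 or -2)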. Meaning of the calls: active = both siRNAs shift cisplatin killing the same way; inactive = no consistent shift, or siRNA harmful alone.
The deposit covers about 23,000 reagents; this is a part drawn at random. 455 of all reagents (2%) were called active. 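Active includes both protection and sensitisation; some change values fall well beyond the stated -50 to +50 range.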 Not all columns of the deposit are shown. Not stated in the record: the amount of reagent.

| gene symbol | two-siRNA summed score (-2 to +2) | outcome |
| --- | --- | --- |
| DDT | 0 | inactive |
| AQP9 | -1 | inactive |
| RNF168 | 0 | inactive |
| VSIG10 | 0 | inactive |
| ORM1 | 0 | inactive |
| DUSP14 | 0 | inactive |
| EHMT1 | 1 | inactive |
| LRRTM1 | 0 | inactive |
| ZNF317 | 0 | inactive |
| PRRG2 | 0 | inactive |
| PTCH2 | 0 | inactive |
| IFNA17 | 0 | inactive |
| LOC439919 | 0 | inactive |
| LOC391092 | 0 | inactive |
| UBXN11 | 0 | inactive |
| APOA4 | 1 | inactive |
| TMCC2 | 0 | inactive |
| SMPD1 | 0 | inactive |
| TRIP6 | 0 | inactive |
| SCNM1 | 0 | inactive |

Not a retest: 4 of the entries above.
| gene symbol | two-siRNA summed score (-2 to +2) | outcome |
| --- | --- | --- |
| LOC439919 | 0 | inactive |
| LOC391092 | 0 | inactive |
| UBXN11 | 0 | inactive |
| APOA4 | 1 | inactive |

Continued.
| gene symbol | two-siRNA summed score (-2 to +2) | outcome |
| --- | --- | --- |
| RPGRIP1L | 0 | inactive |
| SBF1 | 0 | inactive |
| C3orf22 | 0 | inactive |
| LOC440921 | 0 | inactive |
| SLC47A1 | -1 | inactive |
| KLF3 | 0 | inactive |
| IFT70A | 1 | inactive |
| HDAC4 | 0 | inactive |
| MYH7B | 0 | inactive |
| AHDC1 | 0 | inactive |
| SELP | 0 | inactive |
| LOC401944 | 0 | inactive |
| MCM7 | 0 | inactive |
| LOC441376 | 0 | inactive |
| LOC391707 | 0 | inactive |
| LOC440466 | 0 | inactive |
| STK25 | -1 | inactive |
| CLCN7 | -1 | inactive |
| LOC440686 | 0 | inactive |
| CS | 1 | inactive |
| LOC389174 | 0 | inactive |
| HSPA8P6 | 0 | inactive |
| ASTN2 | 0 | inactive |
| MAP2 | 0 | inactive |
| PFN4 | 0 | inactive |
| STRIP1 | 0 | inactive |
| ANKRD22 | 1 | inactive |
| TMEM179B | 0 | inactive |
| TRDN | 0 | inactive |
| DCAF16 | 0 | inactive |
| ALDH5A1 | 0 | inactive |
| TBL2 | 0 | inactive |
| LOC148915 | 0 | inactive |
| PMFBP1 | 0 | inactive |
| DCAF4L2 | 1 | inactive |
| KRTAP26-1 | 0 | inactive |
| ZBTB21 | 0 | inactive |
